Laboratory results taken from patent US7696233B2, “Method for controlling particular insect pests by applying anthranilamide compounds” (E. I. du Pont de Nemours and Company, priority 2001, dated 2010).
Some entries share one result that the patent states for a list of compounds.

Assays:
Type in all cases: in vivo
[1] = tested on: beet armyworm (Spodoptera exigua); experiment: Test C: control of beet armyworm, foliar spray on corn; conditions: sprayed at 50 ppm, visually rated after 6 days
[2] = tested on: tobacco budworm (Heliothis virescens); experiment: Test B: control of tobacco budworm, foliar spray on cotton; conditions: sprayed at 50 ppm, visually rated after 6 days
[3] = tested on: fall armyworm (Spodoptera frugiperda); experiment: Test A: control of fall armyworm, foliar spray on corn; conditions: sprayed at 50 ppm, visually assessed after 6 days

Measured: feeding damage (excellent levels of plant protection)

CC(C)NC(=O)c1cccc(Cl)c1NC(=O)c1cc(Br)nn1-c1ncccc1Cl [Compound 297]
≤ 10%: all assays above

CC(C)(C)NC(=O)c1cccc(Cl)c1NC(=O)c1cc(Br)nn1-c1ncccc1Cl [Compound 298]
≤ 10%: all assays above

CCNC(=O)c1cccc(Cl)c1NC(=O)c1cc(Br)nn1-c1ncccc1Cl [Compound 299]
≤ 10%: all assays above

Cc1cccc(C(=O)NC(C)(C)C)c1NC(=O)c1cc(Br)nn1-c1ncccc1Cl [Compound 301]
≤ 10%: all assays above

Cc1cccc(C(=O)NCC#N)c1NC(=O)c1cc(Br)nn1-c1ncccc1Cl [Compound 302]
≤ 10%: all assays above

Cc1cccc(C(=O)NC2CCC2)c1NC(=O)c1cc(C(F)(F)F)nn1-c1ncccc1Cl [Compound 305]
≤ 10%: all assays above

Cc1cccc(C(=O)NC(C)(C)C)c1NC(=O)c1cc(Cl)nn1-c1ncccc1Cl [Compound 314]
≤ 10%: all assays above

CC(C)(C)NC(=O)c1cccc(Cl)c1NC(=O)c1cc(Cl)nn1-c1ncccc1Cl [Compound 315]
≤ 10%: all assays above

CC(C)NC(=O)c1cccc(Cl)c1NC(=O)c1cc(Cl)nn1-c1ncccc1Cl [Compound 316]
≤ 10%: all assays above

CCC(C)(C)NC(=O)c1cccc(Cl)c1NC(=O)c1cc(C(F)(F)F)nn1-c1ncccc1Cl [Compound 319]
≤ 10%: all assays above

Cc1cc(Br)cc(C(=O)NC(C)C)c1NC(=O)c1cc(C(F)(F)F)nn1-c1c(Cl)cccc1Cl [Compound 324]
≤ 10%: all assays above

COc1cc(C)c(NC(=O)c2cc(C(F)(F)F)nn2-c2ncccc2Cl)c(C(=O)NC(C)C)c1 [Compound 336]
≤ 10%: all assays above

Cc1cccc(C(=O)NCC#N)c1NC(=O)c1cc(Cl)nn1-c1ncccc1Cl [Compound 338]
≤ 10%: all assays above

CCNC(=O)c1cccc(Cl)c1NC(=O)c1cc(C(F)(F)F)nn1-c1ncccc1Cl [Compound 339]
≤ 10%: all assays above

CSCCCNC(=O)c1cccc(C)c1NC(=O)c1cc(C(F)(F)F)nn1-c1ncccc1Cl [Compound 345]
≤ 10%: all assays above

Cc1cccc(C(=O)NCc2ccco2)c1NC(=O)c1cc(C(F)(F)F)nn1-c1ncccc1Cl [Compound 346]
≤ 10%: all assays above
